Binding data for one substance are collected here from article PMC13557503.

By UniProt entry, the sequences of proteins in these tests, tags left out. Where a name states a change or a piece, a line headed by the entry shows the natural chain unless it says otherwise.
UniProt F7VVC1: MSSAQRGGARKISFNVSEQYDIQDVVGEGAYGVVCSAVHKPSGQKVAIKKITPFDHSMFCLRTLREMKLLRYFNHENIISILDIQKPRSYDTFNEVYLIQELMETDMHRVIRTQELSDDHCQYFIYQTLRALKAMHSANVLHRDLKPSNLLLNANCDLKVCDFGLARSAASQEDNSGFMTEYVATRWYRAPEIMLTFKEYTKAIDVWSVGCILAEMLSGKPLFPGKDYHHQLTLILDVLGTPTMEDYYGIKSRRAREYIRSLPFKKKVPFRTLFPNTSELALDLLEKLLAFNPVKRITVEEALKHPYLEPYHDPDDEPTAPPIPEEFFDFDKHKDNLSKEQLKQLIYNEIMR

Results are given in words; binding and its absence hold for the method and conditions named. A result given as binding can be weak or reduced; the word gives no strength.

For the test, the target named is BD-MAK2 (S. macrospora) (UniProt F7VVC1). As to the kind of experiment: two-hybrid; Matchmaker Gold; Gal4 BD baits (pGBKT7) in Y2HGold mated with Gal4 AD preys (pGADT7) in Y187; drop dilutions on SD-Leu-Trp-His-Ade, 30 °C, 5 days.

As to AD-SmDOC1 (from UniProt F7W7B4), the binding entry is given as “binds”.
